Test results: publication PMC9596149
Results are given in words; binding and its absence hold for the method and conditions named. Binding calls can cover weak binding; strength is not graded here.

Molecular target: T1, GlnR of Lactobacillus plantarum WU14 (pGBKT7-GlnR) (Lactobacillus plantarum WU14) (UniProt F9UNV8)
T1 sequence: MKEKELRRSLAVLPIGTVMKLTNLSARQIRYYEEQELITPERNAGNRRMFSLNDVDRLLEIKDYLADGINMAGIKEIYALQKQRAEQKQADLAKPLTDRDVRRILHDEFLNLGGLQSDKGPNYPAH
Assay: two-hybrid; AH109 yeast co-transformed with pGBKT7-GlnR (bait) and pGADT7-Nir; SD/-Leu/-Trp/X-alpha-Gal and SD/-Leu/-Trp/-His+X-alpha-Gal plates, 30°C; blue colonies as read-out; empty pGBKT7 and pGADT7 as controls

With “Nitrite reductase (Nir) of Lactobacillus plantarum WU14 (pGADT7-Nir) (enzyme)” the binding was “binds”.
